These are yes or no findings as the source states them, for the method shown. Binding seen in cells or lysates may run through a third protein. Some entries that bind do so weakly or less than the wild type. For some assays here: Tags and fused reporters may be left off the sequences shown. Blank lines part the entries; values can stand above or below the molecule they belong to.
Assays:
[1] = target: GPRC5B A177dup (MLC3 mutant), NanoBiT fusions (human) (UniProt Q9NZH0); assay: split reporter; NanoBiT complementation in HEK293T cells with a third plasmid coexpressed: pCDNA3.1-empty, pCDNA3.1-MLC1, pCDNA3.1-GlialCAM (or LRRC8A as specificity control); NanoLuc signal normalised to RLuc
[2] = target: GPRC5B A177dup (MLC3 mutant), NanoBiT fusions (human) (UniProt Q9NZH0); assay: split reporter; NanoBiT (SmBiT/LgBiT) complementation in transiently transfected HEK293T cells, constitutive (no ligand); NanoLuc signal normalised to cotransfected RLuc
[3] = target: GPRC5B, wild type, NanoBiT fusions (GPRC5B–SmBiT and GPRC5B–LgBiT) (human) (UniProt Q9NZH0); assay: split reporter; NanoBiT complementation in HEK293T cells with a third plasmid coexpressed: pCDNA3.1-empty, pCDNA3.1-MLC1, pCDNA3.1-GlialCAM (or LRRC8A as specificity control); NanoLuc signal normalised to RLuc
[4] = target: GPRC5B, wild type, NanoBiT fusions (GPRC5B–SmBiT and GPRC5B–LgBiT) (human) (UniProt Q9NZH0); assay: split reporter; NanoBiT (SmBiT/LgBiT) complementation in transiently transfected HEK293T cells, constitutive (no ligand); NanoLuc signal normalised to cotransfected RLuc
[5] = target: GPRC5B I176dup (MLC3 mutant), NanoBiT fusions (human) (UniProt Q9NZH0); assay: split reporter; NanoBiT complementation in HEK293T cells with a third plasmid coexpressed: pCDNA3.1-empty, pCDNA3.1-MLC1, pCDNA3.1-GlialCAM (or LRRC8A as specificity control); NanoLuc signal normalised to RLuc
[6] = target: GPRC5B I176dup (MLC3 mutant), NanoBiT fusions (human) (UniProt Q9NZH0); assay: split reporter; NanoBiT (SmBiT/LgBiT) complementation in transiently transfected HEK293T cells, constitutive (no ligand); NanoLuc signal normalised to cotransfected RLuc
[7] = target: GPRC5B, BRET fusions (GPRC5B-RLuc and GPRC5B-YFP) (human) (UniProt Q9NZH0); assay: FRET or BRET; BRET saturation in HEK293T cells: constant GPRC5B-RLuc (250 ng), increasing GPRC5B-YFP; 48 h after transfection; h-coelenterazine 5 μM; cells in PBS
[8] = target: GPRC5B, split-TEV fusions (GPRC5B-TEV-N and GPRC5B-TEV-C) (human) (UniProt Q9NZH0); assay: split reporter; split-TEV protease complementation in HEK293T cells: one copy fused to TEV-N, TEV site and GV, the other to TEV-C; Gaussia luciferase reporter in the supernatant after 48 h, normalised to β-galactosidase
[9] = target: GPRC5B A177dup (MLC3 mutant), NanoBiT fusions (human) (UniProt Q9NZH0); assay: split reporter; NanoBiT (SmBiT/LgBiT) complementation in transiently transfected HEK293T cells, constitutive (no ligand); NanoLuc signal normalised to cotransfected RLuc; remark: listed apart in the source
[10] = target: GPRC5B I176dup (MLC3 mutant), NanoBiT fusions (human) (UniProt Q9NZH0); assay: as above; remark: listed apart in the source
[11] = target: GPRC5B, wild type, NanoBiT fusions (GPRC5B–SmBiT and GPRC5B–LgBiT) (human) (UniProt Q9NZH0); assay: as above; remark: listed apart in the source

By UniProt entry, the sequences of proteins in these tests, tags left out. Where a name states a change or a piece, a line headed by the entry shows the natural chain unless it says otherwise. Residues count along the entry.
GPRC5B, wild type, NanoBiT fusions (GPRC5B–SmBiT and GPRC5B–LgBiT) (Q9NZH0, residues 29-403): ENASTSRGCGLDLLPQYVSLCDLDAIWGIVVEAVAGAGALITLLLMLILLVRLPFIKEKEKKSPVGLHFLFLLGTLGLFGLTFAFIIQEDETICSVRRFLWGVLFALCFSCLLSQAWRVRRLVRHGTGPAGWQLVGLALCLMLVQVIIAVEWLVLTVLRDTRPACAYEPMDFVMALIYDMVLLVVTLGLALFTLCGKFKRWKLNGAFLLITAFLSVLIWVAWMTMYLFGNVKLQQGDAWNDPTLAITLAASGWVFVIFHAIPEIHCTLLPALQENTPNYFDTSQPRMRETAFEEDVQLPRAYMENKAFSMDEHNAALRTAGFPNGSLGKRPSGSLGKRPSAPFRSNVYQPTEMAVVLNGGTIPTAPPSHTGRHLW

Molecule: GPRC5B A177dup (MLC3 mutant), NanoBiT fusions (from UniProt Q9NZH0 29-403) (receptor)
binding [1]: binds | binding [2]: binds

Molecule: GPRC5B, wild type, NanoBiT fusions (GPRC5B–SmBiT and GPRC5B–LgBiT) (from UniProt Q9NZH0 29-403) (receptor)
binding [3]: binds | binding [4]: binds

Molecule: GPRC5B I176dup (MLC3 mutant), NanoBiT fusions (from UniProt Q9NZH0 29-403) (receptor)
binding [5]: binds | binding [6]: binds

Molecule: GPRC5B, BRET fusions (GPRC5B-RLuc and GPRC5B-YFP) (from UniProt Q9NZH0 29-403) (receptor)
binding [7]: binds

B2: MLC1, SmBiT-tagged (protein, UniProt Q15049 1-377)
chain: MTQEPFREELAYDRMPTLERGRQDPASYAPDAKPSDLQLSKRLPPCFSHKTWVFSVLMGSCLLVTSGFSLYLGNVFPAEMDYLRCAAGSCIPSAIVSFTVSRRNANVIPNFQILFVSTFAVTTTCLIWFGCKLVLNPSAININFNLILLLLLELLMAATVIIAARSSEEDCKKKKGSMSDSANILDEVPFPARVLKSYSVVEVIAGISAVLGGIIALNVDDSVSGPHLSVTFFWILVACFPSAIASHVAAECPSKCLVEVLIAISSLTSPLLFTASGYLSFSIMRIVEMFKDYPPAIKPSYDVLLLLLLLVLLLQAGLNTGTAIQCVRFKVSARLQGASWDTQNGPQERLAGEVARSPLKEFDKEKAWRAVVVQMAQ
binding [9]: binds | binding [10]: binds | binding [11]: binds

The next lines start with the values.

binding [8]: binds
Molecule: GPRC5B, split-TEV fusions (GPRC5B-TEV-N and GPRC5B-TEV-C) (from UniProt Q9NZH0 29-403) (receptor)

binding [1]: binds | binding [5]: binds | binding [3]: binds | binding [2]: binds | binding [6]: binds | binding [4]: binds
Molecule: β-arrestin 2 fused to LgBiT (from UniProt P32121 1-409)

binding [9]: binds | binding [10]: binds | binding [11]: binds
B1: GlialCAM, SmBiT-tagged (protein, UniProt Q14CZ8 34-416)
chain: VNITSPVRLIHGTVGKSALLSVQYSSTSSDRPVVKWQLKRDKPVTVVQSIGTEVIGTLRPDYRDRIRLFENGSLLLSDLQLADEGTYEVEISITDDTFTGEKTINLTVDVPISRPQVLVASTTVLELSEAFTLNCSHENGTKPSYTWLKDGKPLLNDSRMLLSPDQKVLTITRVLMEDDDLYSCMVENPISQGRSLPVKITVYRRSSLYIILSTGGIFLLVTLVTVCACWKPSKRKQKKLEKQNSLEYMDQNDDRLKPEADTLPRSGEQERKNPMALYILKDKDSPETEENPAPEPRSATEPGPPGYSVSPAVPGRSPGLPIRSARRYPRSPARSPATGRTHSSPPRAPSSPGRSRSASRTLRTAGVHIIREQDEAGPVEISA

— paper PMC12775950
